Assay results taken from patent publication US10898469B2, “Imidazolylamide derivative” (Sumitomo Dainippon Pharma Co., Ltd., priority 2016, dated 2021).
For part of these data: The name of at least one read-out is uncertain. For part of these data: For at least one compound, name, drawing or mass did not settle the structure.

Experiments:
HCT-116 cells [1] = test: Inhibition test for sphere-forming ability of cancer cells (Test Example 1), HCT-116; assay type: cell-based, human; conditions: summary in words, cell line not given (HCT-116, HT-29, FaDu tested)
Text: (§1) The reliable methods established for measuring the self-renewal ability of cells which is one of the CSC's properties include a method for measuring the sphere-forming ability of cancer cells in non-adherent condition in the absence of serum (Cancer Res 65, 5506-5511 (2005)). Human colorectal cancer-derived HCT-116 cells, human colon-adenocarcinoma-derived HT-29 cells, and human pharyngeal cancer-derived FaDu cells were available from American Type Culture Collection (ATCC). HCT-116 cells and HT-29 cells were cultured at 37° C. under 5% CO2 using the McCoy's 5a medium containing 10% fetal bovine serum (FBS) and 1% penicillin/streptomycin, and FaDu cells were cultured at 37° C. under 5% CO2 using the MEM medium containing 10% FBS, 1% non-essential amino acid, 1% sodium pyruvate, and 1% penicillin/streptomycin. HCT-116 cells, HT-29 cells, and FaDu cells were seeded in a 384 Well Black Clear Bottom Ultra-Low Attachment Microplate (Corning Cat. No. 3827) in an amount of 350-800 cells/well using the DMEM/F12 medium containing 2% B27 supplement (GIBCO), 20 ng/mL epidermal growth factor (EGF) (peprotech), 10 ng/mL basic fibroblast growth factor (bFGF) (peprotech), 5 μg/mL insulin (Sigma), and 1% penicillin/streptomycin. Each test compound was added into each well to adjust the final concentration of DMSO to 0.1%, and the cells were cultured for 4 days. […]

HCT-116 cells [2] = test: Inhibition test for sphere-forming ability of cancer cells in the presence of BSA (Test Example 2), HCT-116; assay type: cell-based, human; conditions: in the presence of 5% BSA, cultured 4 days
Protocol: as §1, with “Human” for “The reliable methods established for measuring the self-renewal ability of cells which is one of the CSC's properties include a method for measuring the sphere-forming ability of cancer cells in non-adherent condition in the absence of serum (Cancer Res 65, 5506-5511 (2005)). Human”, “pyruvate, 5% bovine serum albumin (BSA),” for “pyruvate,”, “(Sigma), 5% bovine serum albumin (BSA),” for “(Sigma),”, “days. The number of viable cells in each well was then measured with CellTiter-Glo® Luminescent Cell Viability Assay (Promega) to calculate the concentration of each test compound for 50% inhibition of cell proliferation (Sphere IC50 value; μmol/L).” for “days.”

SMILES	inhibitory effect on the sphere-forming ability of cancer cells (HCT-116 cells [1])	IC50 (HCT-116 cells [2]) [µM]
CCOc1ccc(/C=C/C(=O)Nc2cn(Cc3cccc(Cl)c3)cn2)cn1 [Example 1, (E)-N-(1-(3-Chlorobenzyl)-1H-imidazol-4-yl)-3-(6-ethoxypyridin-3-yl)acrylamide]	particularly potent inhibitory effect	
O=C(/C=C/c1ccc(C(F)(F)F)nc1)Nc1cn(Cc2cccc(Cl)c2)cn1 [Example 44]	particularly potent inhibitory effect	
C=Cc1ncc(C(=O)Nc2cn(Cc3cccc(C(F)(F)F)c3)cn2)cc1OC [Example 100]		> 10
